Some results were stated once for a whole list of compounds, not compound by compound.
Test system: ADX cells
Experiment: Daunorubicin trafficking into the nucleus of ADX cells (confocal microscopy)
Type: cell-based, Chinese hamster
Details: ADX cells loaded with daunorubicin
Description: ADX cells were grown on 4-well slides, 20 uM daunorubicin was added for […], followed by various dose of liposomes containing C16:0 ceramide, sphingomyelin, C16:0 dihydroceramide or phosphatidylcholine for 1 h. Cells were examined under Leica SP-5 inverted confocal microscope. Y axis represents percent of cells with nuclear drug.
ADX cells were grown on 4-well slides. 3.5×10^4 ADX cells were incubated with 20 μM daunorubicin in DMEM HG:F-12 medium without serum. After 2 hours, at which time daunorubicin had reached steady state accumulation in cytoplasmic vesicles, liposomes containing long and very long chain ceramides were added to cells at 0, 1, 2, and 5 μM. After a 1 hour-incubation at 37° C., nuclear localization of daunorubicin was determined by confocal microscopy. Cells were examined under Leica SP-5 inverted confocal microscope. Y axis represents percent of cells with nuclear drug.

B1: sphingomyelinase: exogenous bacterial sphingomyelinase used to generate endogenous ceramide (protein, UniProt P09599 28-333, looked up)
Sphingomyelinase C: DTSTDQNNTLKVMTHNVYMLSTNLYPNWGQSQRADLIGAADYIKNQDVVILNEVFDNSASDRLLGNLKKEYPNQTAVLGRSNGNEWDKTLGSYSSSTPEDGGVAIVSKWPIVEKIQYVFAKGCGPDNLSNKGFVYTKIKKNDRFVHVIGTHLQAEDSMCGKTSPASVRTNQLKEIQDFIKNKNIPNDEYVLFGGDMNVNKINAENNSDSEYASMFKTLHASIPSYTGHTATWDATTNSIAKYNFPDSPAEYLDYIIASKDHANPSFIENKVLQPKSPQWTVTSWLKKYTYDDYSDHYPVAATISMK
For B1, the “time over which vesicle trafficking and fusion with the nuclear membrane occurs (videography)” value was 30 to 60 min.

— patent publication US10052387B2, “Ceramide reversal of multi-drug resistance” (Memorial Sloan-Kettering Cancer Center, priority 2013, dated 2018)
